According to PMC6650252:
These are yes or no findings as the source states them, for the method shown. Binding seen in cells or lysates may run through a third protein. Some results given as binding are weak or reduced against the parent protein; the word gives no strength.

Sequences of proteins named here, by UniProt entry; tags and fusion partners are left off. Residues count along the entry.
UniProt Q9QYP1, residues 21-1905: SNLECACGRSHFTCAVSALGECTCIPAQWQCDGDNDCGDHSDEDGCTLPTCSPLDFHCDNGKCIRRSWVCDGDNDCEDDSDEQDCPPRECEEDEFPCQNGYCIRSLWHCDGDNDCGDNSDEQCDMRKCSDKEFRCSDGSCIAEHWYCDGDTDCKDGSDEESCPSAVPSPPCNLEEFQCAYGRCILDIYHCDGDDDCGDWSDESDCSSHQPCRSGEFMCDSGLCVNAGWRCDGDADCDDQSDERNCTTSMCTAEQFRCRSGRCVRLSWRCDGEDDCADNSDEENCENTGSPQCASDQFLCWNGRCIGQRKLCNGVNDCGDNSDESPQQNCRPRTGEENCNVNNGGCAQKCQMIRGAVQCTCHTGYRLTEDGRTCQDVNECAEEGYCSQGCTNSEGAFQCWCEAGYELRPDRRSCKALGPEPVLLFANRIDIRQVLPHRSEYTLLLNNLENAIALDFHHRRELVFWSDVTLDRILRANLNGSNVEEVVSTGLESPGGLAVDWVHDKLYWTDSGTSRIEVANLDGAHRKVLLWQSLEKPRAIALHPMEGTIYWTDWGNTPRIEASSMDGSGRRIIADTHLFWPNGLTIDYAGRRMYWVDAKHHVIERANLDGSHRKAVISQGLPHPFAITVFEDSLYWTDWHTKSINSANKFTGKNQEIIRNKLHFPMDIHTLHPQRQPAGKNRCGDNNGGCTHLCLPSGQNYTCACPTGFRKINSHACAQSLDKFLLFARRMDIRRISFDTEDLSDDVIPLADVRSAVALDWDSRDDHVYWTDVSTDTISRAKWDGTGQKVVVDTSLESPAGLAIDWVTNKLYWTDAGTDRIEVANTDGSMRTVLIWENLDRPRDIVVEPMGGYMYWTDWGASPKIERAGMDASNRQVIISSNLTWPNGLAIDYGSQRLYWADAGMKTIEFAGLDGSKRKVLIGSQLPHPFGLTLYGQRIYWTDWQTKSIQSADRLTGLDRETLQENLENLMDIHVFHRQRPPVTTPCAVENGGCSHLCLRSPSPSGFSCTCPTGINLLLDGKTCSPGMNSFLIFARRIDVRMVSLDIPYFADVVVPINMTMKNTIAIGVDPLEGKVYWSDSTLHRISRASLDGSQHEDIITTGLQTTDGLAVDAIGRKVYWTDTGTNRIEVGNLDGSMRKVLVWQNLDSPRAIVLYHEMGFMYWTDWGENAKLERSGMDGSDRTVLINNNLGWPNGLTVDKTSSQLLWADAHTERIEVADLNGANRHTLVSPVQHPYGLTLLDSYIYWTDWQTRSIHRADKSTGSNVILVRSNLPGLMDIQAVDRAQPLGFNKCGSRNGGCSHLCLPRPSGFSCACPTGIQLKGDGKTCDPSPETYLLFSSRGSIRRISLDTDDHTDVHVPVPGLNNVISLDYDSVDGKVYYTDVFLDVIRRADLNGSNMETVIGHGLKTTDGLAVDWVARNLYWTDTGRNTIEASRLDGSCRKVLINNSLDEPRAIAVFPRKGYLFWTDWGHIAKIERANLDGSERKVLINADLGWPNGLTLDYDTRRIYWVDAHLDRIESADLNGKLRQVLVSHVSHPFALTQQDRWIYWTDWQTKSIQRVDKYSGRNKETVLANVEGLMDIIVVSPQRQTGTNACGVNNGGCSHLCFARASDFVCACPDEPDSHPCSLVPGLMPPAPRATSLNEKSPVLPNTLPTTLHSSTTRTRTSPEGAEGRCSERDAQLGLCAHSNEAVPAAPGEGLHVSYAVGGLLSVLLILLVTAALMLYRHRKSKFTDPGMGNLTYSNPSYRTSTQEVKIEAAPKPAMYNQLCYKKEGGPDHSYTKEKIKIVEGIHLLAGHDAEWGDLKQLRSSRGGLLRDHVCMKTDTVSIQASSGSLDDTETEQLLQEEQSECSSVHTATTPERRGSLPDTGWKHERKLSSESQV
UniProt Q9Z139, residues 30-937: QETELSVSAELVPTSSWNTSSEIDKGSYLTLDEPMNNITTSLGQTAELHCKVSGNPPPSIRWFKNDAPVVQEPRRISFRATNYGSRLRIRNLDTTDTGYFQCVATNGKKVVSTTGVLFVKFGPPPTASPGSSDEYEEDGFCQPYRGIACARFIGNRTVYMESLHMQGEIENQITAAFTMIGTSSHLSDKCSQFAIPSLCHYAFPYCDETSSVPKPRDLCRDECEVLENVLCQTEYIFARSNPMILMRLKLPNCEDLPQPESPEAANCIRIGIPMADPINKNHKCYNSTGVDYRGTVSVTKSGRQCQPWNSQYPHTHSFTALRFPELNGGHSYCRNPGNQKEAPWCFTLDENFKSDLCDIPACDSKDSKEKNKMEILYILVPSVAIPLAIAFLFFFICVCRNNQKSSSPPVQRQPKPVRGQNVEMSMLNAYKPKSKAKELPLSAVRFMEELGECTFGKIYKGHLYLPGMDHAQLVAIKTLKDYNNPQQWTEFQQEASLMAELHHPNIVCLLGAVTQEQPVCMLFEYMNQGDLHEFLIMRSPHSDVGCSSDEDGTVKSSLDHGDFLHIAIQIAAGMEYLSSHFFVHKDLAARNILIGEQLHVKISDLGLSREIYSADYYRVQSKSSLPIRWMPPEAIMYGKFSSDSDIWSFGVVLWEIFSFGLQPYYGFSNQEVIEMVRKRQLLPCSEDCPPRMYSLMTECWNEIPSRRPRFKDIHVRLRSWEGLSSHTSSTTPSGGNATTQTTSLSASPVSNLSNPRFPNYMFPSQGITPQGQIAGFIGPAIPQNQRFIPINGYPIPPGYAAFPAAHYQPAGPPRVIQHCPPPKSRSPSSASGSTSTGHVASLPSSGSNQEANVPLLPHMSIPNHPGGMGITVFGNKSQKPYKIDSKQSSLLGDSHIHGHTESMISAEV
UniProt Q9Z138, residues 34-944: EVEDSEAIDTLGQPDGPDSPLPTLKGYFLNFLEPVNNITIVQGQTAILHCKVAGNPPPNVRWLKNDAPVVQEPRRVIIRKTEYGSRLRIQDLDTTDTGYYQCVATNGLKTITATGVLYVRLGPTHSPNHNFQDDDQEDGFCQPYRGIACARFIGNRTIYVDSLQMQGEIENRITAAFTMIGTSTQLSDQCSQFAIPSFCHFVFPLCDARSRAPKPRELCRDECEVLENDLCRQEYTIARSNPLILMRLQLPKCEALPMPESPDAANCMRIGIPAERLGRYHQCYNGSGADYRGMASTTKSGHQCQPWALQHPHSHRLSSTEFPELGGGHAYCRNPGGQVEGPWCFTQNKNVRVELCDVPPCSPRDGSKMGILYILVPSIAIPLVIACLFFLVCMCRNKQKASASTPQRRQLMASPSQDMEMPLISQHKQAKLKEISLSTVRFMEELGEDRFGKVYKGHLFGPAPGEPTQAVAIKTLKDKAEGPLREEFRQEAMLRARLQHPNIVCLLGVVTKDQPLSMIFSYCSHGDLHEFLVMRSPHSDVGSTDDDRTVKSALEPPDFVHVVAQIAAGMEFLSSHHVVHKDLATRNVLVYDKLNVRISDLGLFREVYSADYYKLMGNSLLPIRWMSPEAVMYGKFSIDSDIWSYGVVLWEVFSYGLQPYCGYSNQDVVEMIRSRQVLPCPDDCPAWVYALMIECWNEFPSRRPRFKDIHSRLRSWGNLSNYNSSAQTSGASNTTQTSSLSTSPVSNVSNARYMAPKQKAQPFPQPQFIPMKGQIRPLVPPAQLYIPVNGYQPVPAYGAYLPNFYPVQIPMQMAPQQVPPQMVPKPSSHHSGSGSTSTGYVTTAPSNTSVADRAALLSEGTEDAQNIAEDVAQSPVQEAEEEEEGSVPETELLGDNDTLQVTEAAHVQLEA

Target: Flag-Lrp4 (low-density lipoprotein receptor-related protein 4) (rat) (UniProt Q9QYP1)
Test: co-IP; Flag-Lrp4 and HA-Ror1 or HA-Ror2 co-transfected into HEK293T cells; Lrp4 precipitated from cell lysates with Flag antibody (Flag M2 beads), immunocomplex analysed for HA-Ror1 and Ror2; also cells treated with Agrin (interaction enhanced)

binding	Substance
no binding	HA-Ror1 (receptor tyrosine kinase-like orphan receptor 1) (from UniProt Q9Z139 30-937)
binds	HA-Ror2 (receptor tyrosine kinase-like orphan receptor 2) (from UniProt Q9Z138 34-944)
